Data published in the supplement of paper PMC10849652.
The list shows a part of the results. Residues, ends and D or L forms follow the SMILES beside them. *: point of attachment. Cbz = O=C(OCc1ccccc1)*

By UniProt entry, the sequences of proteins in these tests, tags left out. Where a name states a change or a piece, a line headed by the entry shows the natural chain unless it says otherwise.
UniProt Q6P9F7: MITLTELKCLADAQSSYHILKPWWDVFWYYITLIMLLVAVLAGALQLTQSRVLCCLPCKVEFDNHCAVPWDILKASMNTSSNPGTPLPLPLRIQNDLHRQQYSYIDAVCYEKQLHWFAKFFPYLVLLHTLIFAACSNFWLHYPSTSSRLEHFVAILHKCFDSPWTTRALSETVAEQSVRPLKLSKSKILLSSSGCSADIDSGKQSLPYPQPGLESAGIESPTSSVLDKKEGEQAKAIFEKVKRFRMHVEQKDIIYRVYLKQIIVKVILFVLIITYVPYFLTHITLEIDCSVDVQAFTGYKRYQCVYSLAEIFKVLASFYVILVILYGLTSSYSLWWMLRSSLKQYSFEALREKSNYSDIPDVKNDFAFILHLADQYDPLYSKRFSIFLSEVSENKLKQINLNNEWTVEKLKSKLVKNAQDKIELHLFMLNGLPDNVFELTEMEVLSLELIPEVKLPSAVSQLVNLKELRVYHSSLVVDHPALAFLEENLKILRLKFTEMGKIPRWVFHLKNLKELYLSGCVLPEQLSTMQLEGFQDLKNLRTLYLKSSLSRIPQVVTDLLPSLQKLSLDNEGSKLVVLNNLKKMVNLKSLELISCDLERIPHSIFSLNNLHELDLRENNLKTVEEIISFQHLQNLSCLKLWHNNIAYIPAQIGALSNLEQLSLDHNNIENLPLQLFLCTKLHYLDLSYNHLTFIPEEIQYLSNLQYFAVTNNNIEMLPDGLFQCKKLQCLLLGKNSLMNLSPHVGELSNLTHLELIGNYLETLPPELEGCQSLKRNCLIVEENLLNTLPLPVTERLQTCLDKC
UniProt O15525: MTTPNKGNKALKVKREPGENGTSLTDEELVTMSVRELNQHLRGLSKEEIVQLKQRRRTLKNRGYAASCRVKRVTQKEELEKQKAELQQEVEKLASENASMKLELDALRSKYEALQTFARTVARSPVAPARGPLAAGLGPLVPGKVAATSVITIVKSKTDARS
UniProt Q02779: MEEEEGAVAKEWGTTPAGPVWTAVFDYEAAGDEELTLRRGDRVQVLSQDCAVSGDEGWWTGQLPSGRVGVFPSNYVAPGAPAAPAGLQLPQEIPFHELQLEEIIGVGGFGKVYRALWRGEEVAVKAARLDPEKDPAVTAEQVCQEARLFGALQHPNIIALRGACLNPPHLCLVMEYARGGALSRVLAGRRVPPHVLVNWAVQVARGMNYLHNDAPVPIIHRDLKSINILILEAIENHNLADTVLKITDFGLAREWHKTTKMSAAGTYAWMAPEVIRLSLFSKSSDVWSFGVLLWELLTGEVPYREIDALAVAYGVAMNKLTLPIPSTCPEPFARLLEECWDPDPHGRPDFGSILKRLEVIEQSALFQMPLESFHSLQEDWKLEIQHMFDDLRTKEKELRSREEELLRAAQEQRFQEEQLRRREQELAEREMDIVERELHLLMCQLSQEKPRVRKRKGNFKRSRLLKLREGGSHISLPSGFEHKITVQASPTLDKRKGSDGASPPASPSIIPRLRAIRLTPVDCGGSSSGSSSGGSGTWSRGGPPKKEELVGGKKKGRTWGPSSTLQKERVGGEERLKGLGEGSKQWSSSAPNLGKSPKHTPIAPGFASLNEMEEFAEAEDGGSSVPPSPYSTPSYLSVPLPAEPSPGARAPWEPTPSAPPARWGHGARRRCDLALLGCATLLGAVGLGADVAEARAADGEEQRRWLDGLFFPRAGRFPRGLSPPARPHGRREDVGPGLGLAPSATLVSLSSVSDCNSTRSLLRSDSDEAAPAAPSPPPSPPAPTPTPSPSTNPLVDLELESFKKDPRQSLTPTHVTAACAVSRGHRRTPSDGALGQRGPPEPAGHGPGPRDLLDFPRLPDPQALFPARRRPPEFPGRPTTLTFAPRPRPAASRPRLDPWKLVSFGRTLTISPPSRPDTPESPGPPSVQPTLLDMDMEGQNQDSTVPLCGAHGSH
UniProt Q9Y5V3: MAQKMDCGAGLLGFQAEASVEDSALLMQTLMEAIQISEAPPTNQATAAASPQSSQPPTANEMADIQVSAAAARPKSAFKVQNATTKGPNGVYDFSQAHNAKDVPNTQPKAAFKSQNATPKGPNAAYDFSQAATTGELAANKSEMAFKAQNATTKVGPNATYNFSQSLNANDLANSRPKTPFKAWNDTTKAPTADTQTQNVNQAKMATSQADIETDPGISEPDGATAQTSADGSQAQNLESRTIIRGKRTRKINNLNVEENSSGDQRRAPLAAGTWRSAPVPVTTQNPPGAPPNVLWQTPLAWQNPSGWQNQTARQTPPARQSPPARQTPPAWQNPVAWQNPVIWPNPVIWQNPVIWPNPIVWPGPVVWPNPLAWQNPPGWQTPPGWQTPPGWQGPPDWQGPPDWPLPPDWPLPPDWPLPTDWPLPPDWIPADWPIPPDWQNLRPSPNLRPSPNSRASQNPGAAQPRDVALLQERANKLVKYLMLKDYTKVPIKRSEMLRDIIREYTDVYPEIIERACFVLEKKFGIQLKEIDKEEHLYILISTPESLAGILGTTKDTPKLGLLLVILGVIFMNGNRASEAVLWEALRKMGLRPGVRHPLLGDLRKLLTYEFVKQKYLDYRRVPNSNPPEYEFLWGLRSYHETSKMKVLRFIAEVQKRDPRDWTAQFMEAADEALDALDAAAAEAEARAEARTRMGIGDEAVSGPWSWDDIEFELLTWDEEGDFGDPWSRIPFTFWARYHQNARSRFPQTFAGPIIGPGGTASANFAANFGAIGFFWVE
UniProt P07948: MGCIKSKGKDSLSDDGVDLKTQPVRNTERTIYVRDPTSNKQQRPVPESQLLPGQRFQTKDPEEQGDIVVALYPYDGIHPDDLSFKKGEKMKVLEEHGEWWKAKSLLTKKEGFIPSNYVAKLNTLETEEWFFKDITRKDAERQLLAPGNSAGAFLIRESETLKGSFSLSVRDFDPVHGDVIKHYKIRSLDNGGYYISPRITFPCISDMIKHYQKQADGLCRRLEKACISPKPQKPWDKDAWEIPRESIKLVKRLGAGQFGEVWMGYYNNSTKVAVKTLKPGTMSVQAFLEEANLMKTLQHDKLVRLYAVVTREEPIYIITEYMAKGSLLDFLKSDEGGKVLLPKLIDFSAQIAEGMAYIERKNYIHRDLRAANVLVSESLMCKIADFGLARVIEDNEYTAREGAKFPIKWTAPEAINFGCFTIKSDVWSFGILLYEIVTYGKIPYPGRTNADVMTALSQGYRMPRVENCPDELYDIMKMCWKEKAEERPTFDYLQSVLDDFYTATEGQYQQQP
UniProt Q86UD3: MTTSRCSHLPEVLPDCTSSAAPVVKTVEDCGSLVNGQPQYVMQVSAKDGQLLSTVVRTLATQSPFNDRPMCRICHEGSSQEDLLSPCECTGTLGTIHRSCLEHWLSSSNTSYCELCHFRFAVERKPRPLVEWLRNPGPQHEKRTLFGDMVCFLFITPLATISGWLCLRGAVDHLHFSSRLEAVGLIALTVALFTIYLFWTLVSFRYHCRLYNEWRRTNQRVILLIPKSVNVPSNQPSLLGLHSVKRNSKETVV
UniProt Q13164: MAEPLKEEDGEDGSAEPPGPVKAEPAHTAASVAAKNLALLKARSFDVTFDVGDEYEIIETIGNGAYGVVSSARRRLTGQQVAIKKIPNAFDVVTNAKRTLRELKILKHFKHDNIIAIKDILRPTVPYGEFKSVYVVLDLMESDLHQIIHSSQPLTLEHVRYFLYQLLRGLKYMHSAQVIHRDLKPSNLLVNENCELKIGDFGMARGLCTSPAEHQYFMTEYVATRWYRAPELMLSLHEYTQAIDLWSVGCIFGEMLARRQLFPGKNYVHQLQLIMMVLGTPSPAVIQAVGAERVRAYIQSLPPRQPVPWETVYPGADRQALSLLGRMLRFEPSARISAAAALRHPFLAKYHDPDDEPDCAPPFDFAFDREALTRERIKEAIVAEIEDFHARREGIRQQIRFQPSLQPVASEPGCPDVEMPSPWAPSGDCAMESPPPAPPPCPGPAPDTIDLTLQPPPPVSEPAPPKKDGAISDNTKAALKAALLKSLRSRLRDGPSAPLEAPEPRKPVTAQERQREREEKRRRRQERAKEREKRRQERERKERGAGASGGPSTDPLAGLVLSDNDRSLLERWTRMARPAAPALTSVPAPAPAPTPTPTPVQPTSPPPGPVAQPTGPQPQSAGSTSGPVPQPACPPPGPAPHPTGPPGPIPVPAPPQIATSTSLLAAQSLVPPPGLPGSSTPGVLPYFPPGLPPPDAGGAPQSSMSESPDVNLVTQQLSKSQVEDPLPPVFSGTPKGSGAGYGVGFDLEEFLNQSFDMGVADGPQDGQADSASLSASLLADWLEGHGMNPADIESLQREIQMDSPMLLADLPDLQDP
UniProt Q9BPZ7, whole entry, looked up: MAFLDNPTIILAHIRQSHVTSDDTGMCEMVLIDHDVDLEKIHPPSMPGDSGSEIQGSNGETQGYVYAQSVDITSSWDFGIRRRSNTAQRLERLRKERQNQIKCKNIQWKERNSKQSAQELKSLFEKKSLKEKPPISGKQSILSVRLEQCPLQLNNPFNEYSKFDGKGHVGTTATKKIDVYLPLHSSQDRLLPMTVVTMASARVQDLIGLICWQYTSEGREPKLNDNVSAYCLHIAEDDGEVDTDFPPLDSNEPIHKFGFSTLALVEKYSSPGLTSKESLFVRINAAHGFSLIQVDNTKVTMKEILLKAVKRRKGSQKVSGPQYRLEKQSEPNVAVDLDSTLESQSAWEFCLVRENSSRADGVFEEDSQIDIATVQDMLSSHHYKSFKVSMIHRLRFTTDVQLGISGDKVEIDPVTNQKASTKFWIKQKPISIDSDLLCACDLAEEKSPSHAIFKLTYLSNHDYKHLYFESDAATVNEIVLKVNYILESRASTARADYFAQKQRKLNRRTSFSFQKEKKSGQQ
UniProt Q9UI95, whole entry, looked up: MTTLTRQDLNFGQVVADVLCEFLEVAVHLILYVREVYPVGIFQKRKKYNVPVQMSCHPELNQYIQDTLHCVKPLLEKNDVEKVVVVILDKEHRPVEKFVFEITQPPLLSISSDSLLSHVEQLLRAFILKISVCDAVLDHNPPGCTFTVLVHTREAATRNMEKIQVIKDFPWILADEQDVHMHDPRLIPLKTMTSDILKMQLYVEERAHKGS
UniProt Q9C099: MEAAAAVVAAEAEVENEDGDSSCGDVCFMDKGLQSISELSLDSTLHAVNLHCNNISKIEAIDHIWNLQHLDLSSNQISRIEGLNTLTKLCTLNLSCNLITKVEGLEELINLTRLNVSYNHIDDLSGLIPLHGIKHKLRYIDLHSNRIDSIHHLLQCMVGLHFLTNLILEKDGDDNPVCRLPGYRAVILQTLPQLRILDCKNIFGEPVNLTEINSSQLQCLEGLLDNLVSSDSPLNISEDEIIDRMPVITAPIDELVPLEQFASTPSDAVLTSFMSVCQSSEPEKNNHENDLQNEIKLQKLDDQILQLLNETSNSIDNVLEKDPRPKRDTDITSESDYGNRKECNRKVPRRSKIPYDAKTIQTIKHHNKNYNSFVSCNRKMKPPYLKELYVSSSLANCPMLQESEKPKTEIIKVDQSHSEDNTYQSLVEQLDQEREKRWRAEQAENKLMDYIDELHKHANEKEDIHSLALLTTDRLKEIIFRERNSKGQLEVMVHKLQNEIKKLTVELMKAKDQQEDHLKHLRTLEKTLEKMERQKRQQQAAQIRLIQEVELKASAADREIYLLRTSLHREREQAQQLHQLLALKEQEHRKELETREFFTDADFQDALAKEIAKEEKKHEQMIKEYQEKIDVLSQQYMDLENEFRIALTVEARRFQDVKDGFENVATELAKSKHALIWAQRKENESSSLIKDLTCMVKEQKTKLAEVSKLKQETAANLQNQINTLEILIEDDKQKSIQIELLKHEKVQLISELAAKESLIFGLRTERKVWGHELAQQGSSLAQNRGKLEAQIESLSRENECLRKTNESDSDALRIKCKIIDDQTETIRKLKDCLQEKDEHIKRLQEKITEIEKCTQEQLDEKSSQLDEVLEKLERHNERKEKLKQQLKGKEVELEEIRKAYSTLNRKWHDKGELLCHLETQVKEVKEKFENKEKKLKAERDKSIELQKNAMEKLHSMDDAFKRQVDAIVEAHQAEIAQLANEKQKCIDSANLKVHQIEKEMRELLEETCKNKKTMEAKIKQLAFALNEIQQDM
UniProt Q13163: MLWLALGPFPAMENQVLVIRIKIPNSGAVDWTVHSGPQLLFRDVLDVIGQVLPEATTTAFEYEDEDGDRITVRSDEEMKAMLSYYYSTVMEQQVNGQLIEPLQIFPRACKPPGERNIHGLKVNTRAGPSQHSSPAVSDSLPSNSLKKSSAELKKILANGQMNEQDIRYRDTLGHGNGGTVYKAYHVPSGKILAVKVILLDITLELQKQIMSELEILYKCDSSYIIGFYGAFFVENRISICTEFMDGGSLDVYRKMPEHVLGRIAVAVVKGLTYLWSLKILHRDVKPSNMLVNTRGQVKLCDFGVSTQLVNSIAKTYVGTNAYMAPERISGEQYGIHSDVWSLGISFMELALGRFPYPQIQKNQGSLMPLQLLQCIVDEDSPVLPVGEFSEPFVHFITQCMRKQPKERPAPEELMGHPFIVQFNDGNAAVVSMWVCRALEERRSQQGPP

How the values were obtained:
Assay in all cases: log2 fold change, soluble protein after heating vs DMSO (PISA); higher = thermal stabilisation; K562 cells, 10 uM, 30 min; active = over 0.2 and 3.5 SD of the protein, either way, in both replicates (recomputed)
ibrutinib = compound: C=CC(=O)N1CCC[C@@H](n2nc(-c3ccc(Oc4ccccc4)cc3)c3c(N)ncnc32)C1 [ibrutinib]
Outline: (§1)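 K562 cells (2×10^6 cells/mL) were treated with 10 μM compound for 30 min, and aliquots were heated for 3 min over 48°C-58°C. Pooled aliquots were extracted in PBS with 0.5% NP-40 at 4°C, and the supernatant after 21,000xg for 90 min was measured by TMTpro 16plex LC-MS/MS with channel sums equalised. Reported thermal stability, relative to control samples and from duplicates, is a log2 fold change.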

ralimetinib = compound: CC(C)(C)Cn1c(N)nc2ccc(-c3[nH]c(C(C)(C)C)nc3-c3ccc(F)cc3)nc21 [ralimetinib]
Outline: as §1

[1] = compound: CC(C)(O)CC(=O)NCCn1ccc2ncnc(Nc3ccc(Oc4cccc(C(F)(F)F)c4)c(Cl)c3)c21
Outline: as §1

[2] = compound: CC(C)C1=C2N=C(C=C(N2N=C1)NCC3=CC=CC=C3)NCCCCCCN
Outline: as §1

[3] = compound: CC(C)C[C@@H](C=O)NC(=O)[C@H](CC(C)C)NC(=O)[C@H](CC(C)C)NC(=O)OCc1ccccc1
Outline: as §1

[4] = compound: CC1=C(C(CC(=O)N1)C2=CC=C(C=C2)C(F)(F)F)C(=O)NC3=C(C=C4C(=C3)C=NN4)F
Outline: as §1

[5] = compound: CC1=C(C=C(C=C1)NC(=O)C2=CC(=CC=C2)C(C)(C)C#N)NC3=CC4=C(C=C3)N=CN(C4=O)C
Outline: as §1

[6] = compound: CC1=C(C=C(C=C1)NC(=O)C2=CC(=CC=C2)N(C)C)NC(=O)C3=CC=C(C=C3)O
Outline: as §1

[7] = compound: CC1=CC=C(C=C1)SC2=C3C=C(SC3=CN=C2)C(=O)N
Outline: as §1

Nexturastat A = compound: CCCCN(Cc1ccc(C(=O)NO)cc1)C(=O)Nc1ccccc1 [Nexturastat A]
Outline: as §1

[8] = compound: CCCS(=O)(=O)Nc1ccc(F)c(C(=O)c2c[nH]c3ncc(Cl)cc23)c1F
Outline: as §1

[9] = compound: CCCc1cc(C)[nH]c(=O)c1CNC(=O)c1cc(-c2ccnc(N3CCN(C)CC3)c2)cc2c1cnn2C(C)C
Outline: as §1

givinostat = compound: CCN(CC)Cc1ccc2cc(COC(=O)Nc3ccc(C(=O)NO)cc3)ccc2c1 [givinostat]
Outline: as §1

barasertib = compound: CCN(CCCOc1ccc2c(Nc3cc(CC(=O)Nc4cccc(F)c4)[nH]n3)ncnc2c1)CCOP(=O)(O)O [barasertib]
Outline: as §1

[10] = compound: CC(=O)c1cnc2ccc(-c3cc(Cl)c(O)c(Cl)c3)nc2c1N[C@H]1CC[C@H](CN(C)C)CC1
Outline: as §1

vemurafenib = compound: CCCS(=O)(=O)Nc1ccc(F)c(C(=O)c2c[nH]c3ncc(-c4ccc(Cl)cc4)cc23)c1F [vemurafenib]
Outline: as §1

[11] = compound: CC1=C(C2=C(C=C1)C(=O)C3=CC=CC=C3N2CCCN)C
Outline: as §1

IRAK-1-4 Inhibitor I = compound: C1COCCN1CCN2C3=CC=CC=C3N=C2NC(=O)C4=CC(=CC=C4)[N+](=O)[O-] [IRAK-1-4 Inhibitor I]
Outline: as §1

pinometostat = compound: CC(C)N(C[C@H]1O[C@@H](n2cnc3c(N)ncnc32)[C@H](O)[C@@H]1O)[C@H]1C[C@@H](CCc2nc3cc(C(C)(C)C)ccc3[nH]2)C1 [pinometostat]
Outline: as §1

[12] = compound: CC1=NC(=CC=C1)C2=C(N=C(N2)C(C)(C)C)C3=CC4=NC=CN=C4C=C3
Outline: as §1

Measured: log2 fold change

LRRC8B (UniProt Q6P9F7)
inactive: ibrutinib -0.038 | ralimetinib 0.135 | [1] 0.052 | [2] 0.251 | [3] 0.184 | [4] -0.144 | [5] 0.077 | [6] 0.073 | [7] -0.095 | Nexturastat A 0.068 | [8] 0.001 | [9] 0.142 | givinostat 0.027 | barasertib -0.119

MAFG (UniProt O15525)
inactive: [10] -0.079 | ralimetinib 0.044 | [1] 0.109 | [3] 0.247 | [6] 0.09 | Nexturastat A 0.285 | vemurafenib -0.114

MAP3K10 (UniProt Q02779)
inactive: ibrutinib -0.148 | [10] -0.008 | [11] 0.113 | [5] -0.311 | [7] -0.132 | vemurafenib -0.116 | [8] -0.305 | barasertib -0.002

LSR (UniProt M0QZL9)
inactive: [1] 0.057 | [5] -0.324 | Nexturastat A -0.157 | vemurafenib 0.024

MAGED1 isoform 2 (UniProt Q9Y5V3)
inactive: [10] 0.03 | [1] -0.136 | [2] 0 | [5] 0.003 | [7] 0.1 | vemurafenib -0.236 | [8] 0.198 | givinostat 0.006
active: Nexturastat A 0.608

LYN isoform 2 (UniProt P07948)
inactive: IRAK-1-4 Inhibitor I 0.04 | [10] -0.246 | [1] 0.002 | [2] -0.078 | pinometostat 0.147 | [5] 0.056 | [7] -0.079 | [12] -0.079 | Nexturastat A 0.376 | vemurafenib 0.095 | [8] -0.296 | givinostat -0.168

MAGEB10 (UniProt Q96LZ2)
inactive: [10] 0.172 | [4] -0.291 | [11] -0.195 | vemurafenib -0.134

MAN2B1 (UniProt M0QYZ1)
inactive: IRAK-1-4 Inhibitor I 0.156 | [10] -0.131 | [1] 0.021 | pinometostat -0.058 | [7] -0.254 | [12] -0.022 | Nexturastat A 0.003 | [8] -0.153

LRRFIP1 isoform 4 (UniProt Q32MZ4)
inactive: IRAK-1-4 Inhibitor I -0.06 | [10] 0.163 | [1] -0.019 | [2] 0.031 | pinometostat -0.019 | [12] 0.186 | Nexturastat A -0.077 | givinostat 0.011

MAML1 (UniProt Q92585)
inactive: IRAK-1-4 Inhibitor I 0.117 | ralimetinib 0.013 | [1] 0.02 | [2] 0.016 | [3] -0.043 | pinometostat -0.133 | [5] -0.05 | [6] -0.035 | [12] 0.199 | Nexturastat A 0.039 | vemurafenib 0.038 | givinostat 0.299

MARCHF3 (UniProt Q86UD3)
inactive: ibrutinib 0.073 | [1] -0.133 | [5] 0.001 | [7] -0.008 | Nexturastat A 0.081 | [8] -0.01 | barasertib 0.025

MAP4K4 isoform 6 (UniProt O95819)
inactive: [11] 0.143 | [5] -0.031 | vemurafenib -0.052 | [9] 0.393

MAPK7 (UniProt Q13164)
active: [10] 1.41
inactive: IRAK-1-4 Inhibitor I -0.033 | [1] 0.008 | pinometostat 0.105 | [12] -0.169 | Nexturastat A 0.275

MANSC1 (UniProt Q9H8J5)
inactive: [10] 0.028 | [4] 0.09 | [11] -0.07

LTBP1 isoform 4 (UniProt Q14766)
inactive: ibrutinib 0.044 | [10] -0.007 | ralimetinib -0.013 | [1] 0.093 | [2] 0.22 | [3] -0.041 | [4] 0.016 | [11] 0.018 | [6] 0.026 | [7] 0.054 | Nexturastat A -0.185 | vemurafenib 0.045 | [8] 0.012 | givinostat 0.036 | barasertib 0.011

MAPKAP1 (UniProt Q9BPZ7)
inactive: ralimetinib 0.035 | [1] -0.313 | [3] -0.052 | [11] 0.248 | [6] 0.071 | Nexturastat A 0.105

MAP7D3 (UniProt Q8IWC1)
inactive: ibrutinib -0.047 | ralimetinib 0.332 | [1] -0.005 | [2] -0.165 | [3] 0.211 | [4] 0.019 | [5] -0.132 | [6] -0.014 | Nexturastat A 0.195 | givinostat -0.009 | barasertib -0.118

MAPK11 (UniProt Q15759)
active: ralimetinib 1.47
inactive: IRAK-1-4 Inhibitor I -0.22 | [2] -0.853 | [3] -0.091 | pinometostat -0.111 | [11] 0.103 | [6] 0.094 | [12] 0.045 | givinostat 0.131

LTBP4 (UniProt Q8N2S1)
inactive: IRAK-1-4 Inhibitor I -0.054 | [10] 0.025 | [1] -0.069 | [2] 0.087 | pinometostat 0.08 | [4] -0.051 | [11] -0.022 | [5] 0.04 | [7] 0.16 | [12] 0.041 | Nexturastat A 0.097 | [8] -0.012 | [9] -0.059 | givinostat 0.132

MAPRE3 isoform 2 (UniProt Q9UPY8)
inactive: IRAK-1-4 Inhibitor I -0.384 | [10] -0.139 | pinometostat -0.101 | [11] 0.109 | [7] -0.075 | [12] -0.065 | [8] 0.029

Reprinted from the entries so far (5 entries):
MAPK7 (UniProt Q13164)
active: [10] 1.41
inactive: IRAK-1-4 Inhibitor I -0.033 | [1] 0.008 | pinometostat 0.105 | [12] -0.169 | Nexturastat A 0.275

MANSC1 (UniProt Q9H8J5)
inactive: [10] 0.028 | [4] 0.09 | [11] -0.07

LTBP1 isoform 4 (UniProt Q14766)
inactive: ibrutinib 0.044 | [10] -0.007 | ralimetinib -0.013 | [1] 0.093 | [2] 0.22 | [3] -0.041 | [4] 0.016 | [11] 0.018 | [6] 0.026 | [7] 0.054 | Nexturastat A -0.185 | vemurafenib 0.045 | [8] 0.012 | givinostat 0.036 | barasertib 0.011

MAPKAP1 (UniProt Q9BPZ7)
inactive: ralimetinib 0.035 | [1] -0.313 | [3] -0.052 | [11] 0.248 | [6] 0.071 | Nexturastat A 0.105

MAP7D3 (UniProt Q8IWC1)
inactive: ibrutinib -0.047 | ralimetinib 0.332 | [1] -0.005 | [2] -0.165 | [3] 0.211 | [4] 0.019 | [5] -0.132 | [6] -0.014 | Nexturastat A 0.195 | givinostat -0.009 | barasertib -0.118

Later entries

MAP4 isoform 5 (UniProt P27816)
inactive: ibrutinib 0.076 | [10] 0.142 | ralimetinib -0.019 | [1] 0.052 | [2] 0.083 | [3] 0.014 | [5] 0.013 | [6] 0.055 | [7] -0.173 | Nexturastat A 0.105 | [8] -0.01 | [9] -0.161 | givinostat -0.028 | barasertib -0.114

LYST (UniProt Q99698)
inactive: ibrutinib -0.095 | [1] 0.096 | [4] 0.11 | Nexturastat A 0.004 | vemurafenib -0.037 | [9] 0.056 | barasertib 0.064

MAML2 (UniProt Q8IZL2)
inactive: ralimetinib -0.047 | [2] -0.021 | [3] 0.094 | [6] 0.217 | givinostat 0.227

MAD2L2 (UniProt Q9UI95)
inactive: IRAK-1-4 Inhibitor I -0.31 | [10] -0.071 | [1] -0.351 | [2] 0.052 | pinometostat 0.06 | [5] -0.099 | [12] -0.554 | Nexturastat A 0.099 | givinostat -0.029

MAF1 (UniProt Q9H063)
inactive: ralimetinib -0.112 | [3] 0.203 | [6] -0.191

LRRCC1 (UniProt Q9C099)
inactive: [10] 0.047 | ralimetinib 0.043 | [3] 0.237 | [11] 0.109 | [6] 0.039

MAP2K5 (UniProt Q13163)
active: [10] -1.19
inactive: IRAK-1-4 Inhibitor I 0.063 | ralimetinib 0.066 | [3] -0.238 | pinometostat -0.051 | [6] -0.085 | [12] 0.017

LSM14A, A0A140TA76
inactive: [10] -0.127 | [11] 0.104 | vemurafenib -0.019 | [9] 0.133
